{
  "sequences": {"note": "By UniProt entry, the sequences of proteins in these tests, tags left out.", "UniProt P51617": "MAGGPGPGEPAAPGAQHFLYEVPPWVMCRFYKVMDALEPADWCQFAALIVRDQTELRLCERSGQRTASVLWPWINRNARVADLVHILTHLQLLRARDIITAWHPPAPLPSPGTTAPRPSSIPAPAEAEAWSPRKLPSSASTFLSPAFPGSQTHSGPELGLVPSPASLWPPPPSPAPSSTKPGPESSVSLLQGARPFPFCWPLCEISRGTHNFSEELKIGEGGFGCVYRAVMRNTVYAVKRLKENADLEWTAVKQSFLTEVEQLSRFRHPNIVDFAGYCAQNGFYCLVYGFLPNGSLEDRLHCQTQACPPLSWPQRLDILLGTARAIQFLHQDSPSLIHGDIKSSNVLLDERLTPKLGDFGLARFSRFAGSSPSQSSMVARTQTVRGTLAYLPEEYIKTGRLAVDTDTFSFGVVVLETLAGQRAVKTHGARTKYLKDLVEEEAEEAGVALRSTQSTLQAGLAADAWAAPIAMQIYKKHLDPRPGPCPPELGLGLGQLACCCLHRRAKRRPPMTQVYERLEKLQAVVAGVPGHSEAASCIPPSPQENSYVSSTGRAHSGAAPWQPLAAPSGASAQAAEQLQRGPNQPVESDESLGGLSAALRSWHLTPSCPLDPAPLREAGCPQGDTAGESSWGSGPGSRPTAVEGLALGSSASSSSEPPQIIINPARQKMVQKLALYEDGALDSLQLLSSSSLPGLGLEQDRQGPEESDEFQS"},
  "source": "paper PMC9008698",
  "experiment_in_all_cases": "co-IP; HEK293T cells co-transfected with both partners; lysis in 0.5% Triton X-100, 20 mM Tris-HCl pH 7.5, 150 mM NaCl, 10% glycerol, 1 mM EDTA; anti-Flag agarose or anti-HA magnetic beads 4 h at 4°C; washes with 300 mM NaCl; immunoblotting",
  "key": {"IKKβ": {"target": "T1, IKKβ (UniProt O14920)", "T1 sequence": "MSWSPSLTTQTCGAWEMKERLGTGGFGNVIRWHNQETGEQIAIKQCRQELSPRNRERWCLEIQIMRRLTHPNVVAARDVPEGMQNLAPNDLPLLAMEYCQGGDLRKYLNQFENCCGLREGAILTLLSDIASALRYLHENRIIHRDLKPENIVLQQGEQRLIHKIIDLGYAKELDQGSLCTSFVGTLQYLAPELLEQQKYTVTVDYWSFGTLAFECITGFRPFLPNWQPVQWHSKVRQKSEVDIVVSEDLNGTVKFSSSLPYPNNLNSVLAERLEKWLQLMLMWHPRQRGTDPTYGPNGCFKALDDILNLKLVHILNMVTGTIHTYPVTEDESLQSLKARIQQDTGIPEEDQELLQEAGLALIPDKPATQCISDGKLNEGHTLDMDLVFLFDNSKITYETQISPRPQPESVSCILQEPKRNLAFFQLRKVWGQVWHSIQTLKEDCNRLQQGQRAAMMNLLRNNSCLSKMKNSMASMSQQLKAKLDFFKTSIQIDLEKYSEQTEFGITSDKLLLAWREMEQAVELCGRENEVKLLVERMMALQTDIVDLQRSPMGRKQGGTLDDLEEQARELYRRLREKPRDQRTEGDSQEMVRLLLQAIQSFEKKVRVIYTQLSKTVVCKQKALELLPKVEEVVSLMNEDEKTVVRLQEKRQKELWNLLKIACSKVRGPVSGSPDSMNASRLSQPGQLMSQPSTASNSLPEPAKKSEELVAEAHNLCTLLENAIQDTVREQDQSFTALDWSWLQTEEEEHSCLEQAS"}, "IRAK1 (overexpressed)": {"target": "IRAK1 (overexpressed) (UniProt P51617)"}, "TAB2": {"target": "T2, TAB2 (UniProt Q9NYJ8)", "T2 sequence": "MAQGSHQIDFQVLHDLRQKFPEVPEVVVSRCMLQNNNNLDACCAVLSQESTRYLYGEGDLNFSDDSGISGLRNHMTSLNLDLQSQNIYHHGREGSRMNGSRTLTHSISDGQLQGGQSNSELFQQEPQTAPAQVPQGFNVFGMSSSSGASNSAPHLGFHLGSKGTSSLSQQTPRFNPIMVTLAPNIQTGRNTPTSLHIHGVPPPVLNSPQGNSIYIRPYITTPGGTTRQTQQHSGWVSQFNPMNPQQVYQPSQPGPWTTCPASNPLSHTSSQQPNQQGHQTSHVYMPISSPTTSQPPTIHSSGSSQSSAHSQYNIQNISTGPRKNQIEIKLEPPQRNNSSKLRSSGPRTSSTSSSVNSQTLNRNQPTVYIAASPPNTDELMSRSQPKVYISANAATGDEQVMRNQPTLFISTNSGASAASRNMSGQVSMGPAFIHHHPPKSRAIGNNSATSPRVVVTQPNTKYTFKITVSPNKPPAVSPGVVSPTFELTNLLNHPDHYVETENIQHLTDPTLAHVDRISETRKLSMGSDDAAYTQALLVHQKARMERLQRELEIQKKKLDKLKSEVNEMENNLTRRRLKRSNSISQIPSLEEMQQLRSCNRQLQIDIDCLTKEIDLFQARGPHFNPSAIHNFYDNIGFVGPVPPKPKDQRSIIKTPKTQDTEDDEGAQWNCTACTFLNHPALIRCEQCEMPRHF"}, "[1]": {"target": "T3, TRAF2 (full length, overexpressed) (UniProt Q12933)", "T3 sequence": "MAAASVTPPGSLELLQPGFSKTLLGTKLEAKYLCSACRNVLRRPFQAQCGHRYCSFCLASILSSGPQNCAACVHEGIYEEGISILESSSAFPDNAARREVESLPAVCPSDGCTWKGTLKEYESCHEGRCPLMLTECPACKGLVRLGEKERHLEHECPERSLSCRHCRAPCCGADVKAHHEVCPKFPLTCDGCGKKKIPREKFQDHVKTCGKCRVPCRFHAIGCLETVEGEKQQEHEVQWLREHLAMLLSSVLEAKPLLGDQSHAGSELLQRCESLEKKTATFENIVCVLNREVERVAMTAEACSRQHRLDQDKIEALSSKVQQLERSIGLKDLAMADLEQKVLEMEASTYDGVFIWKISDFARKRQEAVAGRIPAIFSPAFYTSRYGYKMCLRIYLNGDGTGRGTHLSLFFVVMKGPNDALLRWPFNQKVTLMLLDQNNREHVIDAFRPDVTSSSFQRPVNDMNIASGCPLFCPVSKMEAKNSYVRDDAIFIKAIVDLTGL"}, "[2]": {"target": "T4, TRAF2-C (C-terminal TRAF domain; residues 272–501) (UniProt Q12933)", "T4 sequence": "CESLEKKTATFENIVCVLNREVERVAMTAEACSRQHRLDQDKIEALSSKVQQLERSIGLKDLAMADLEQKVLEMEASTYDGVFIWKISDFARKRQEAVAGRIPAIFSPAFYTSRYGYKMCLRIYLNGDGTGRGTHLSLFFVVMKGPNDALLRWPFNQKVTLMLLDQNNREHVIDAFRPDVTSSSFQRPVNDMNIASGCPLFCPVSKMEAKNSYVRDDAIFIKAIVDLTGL"}},
  "note": "No constants are given. Whether binding was seen depends on the method and setting. Binding seen in cells or lysates may run through a third protein. Some results given as binding are weak or reduced against the parent protein; the word gives no strength.",
  "data": [
    {"binder": "KIZ (full length, co-transfected in HEK293T) (protein, UniProt Q2M2Z5 1-673) MSRTLASAVPLSSPDYYERLGQLQHGLRDSEKKRLDLEKKLYEYNQSDTCRVKLKYVKLKNYLKEICESEKKAHTRNQEYLKRFERVQAHVVHFTTNTEKLQKLKLEYETQIKKMLCSKDSLGLKEELTDEDREKVAVHEGINSGTAMSRGLYQPATIFMGRQMSAILSMRDFSTEHKSPQPTKNFSIPDPHSHRQTAQSSNVTDSCVVQTSNDTQCLNKSDNIDGKASLQIGEKMPVTASVLSEEEQTHCLEIGSNTRHGKSNLSEGKKSAELNSPLRERLSPENRTTDLKCDSSSGSEGEILTREHIEVEEKRASPPVSPIPVSEYCESENKWSQEKHSPWEGVSDHLAHREPKSQKPFRKMQEEEEESWSTSSDLTISISEDDLILESPEPQPNPGGKMEGEDGIEALKLIHAEQERVALSTEKNCILQTLSSPDSEKESSTNAPTREPGQTPDSDVPRAQVGQHVATLKEHDNSVKEEATALLRKALTEECGRRSAIHSSESSCSLPSILNDNSGIKEAKPAVWLNSVPTREQEVSSGCGDKSKKENVAADIPITETEAYQLLKKATLQDNTNQTENRFQKTDASVSHLSGLNIGSGAFETKTANKIASEASFSSSEGSPLSRHENKKKPVINLKSNALWDESDDSNSEIEAALRPRNHNTDDSDDFYD", "values": [
      {"measurement": "binding", "setting": "IKKβ", "result": "no binding"},
      {"measurement": "binding", "setting": "IRAK1 (overexpressed)", "result": "no binding"},
      {"measurement": "binding", "setting": "TAB2", "result": "no binding"},
      {"measurement": "binding", "setting": "[1]", "result": "binds"},
      {"measurement": "binding", "setting": "[2]", "result": "binds"}
    ]}
  ]
}
